Measured data: PubChem BioAssay AID652272 (Drosophila RNAi Screening Center, 2013)

Screen: 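Genes whose knock-down decreases or increases Hedgehog reporter output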 (primary screen)
Cells: Drosophila clone 8 (Cl8) cells
Reagent: long dsRNA against Drosophila genes
Measurement: 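Plate reader light from a firefly reporter under a ptc promoter fragment that responds to Hedgehog, with Renilla light as transfection reference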
Scale: firefly Hh reporter signal: higher = more ptc reporter light; Renilla reference signal: higher = more Renilla control light
Call rule: 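Hit when the z-score averaged over two replicates is under -2 or over +3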
Calls: active = hit: reporter lowered or raised; inactive = not a hit
In all, the deposit lists about 21,000 reagents; below is a random part of those that have a named target and a result. In the full data, 503 (2.4%) are marked active. 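Raw plate light values, not normalised; calls rest on replicate z-scores that were not deposited; hits include reporter decreases as well as increases.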 Not stated in the record: the amount of reagent, the time to read-out.

target | dsRNA | firefly Hh reporter signal, replicate 1 | firefly Hh reporter signal, replicate 2 | firefly Hh reporter signal, replicate 3 | Renilla reference signal, replicate 1 | Renilla reference signal, replicate 2 | Outcome
CG33258 (GeneID 3885664) | DRSC09415 | 1.95e5 | – | – | 4985 | – | inactive
Sgs3 (GeneID 39288) | DRSC11280 | 62455 | 55152 | 86966 | 4969 | 4781 | inactive
nocte (GeneID 31976) | DRSC18123 | 71133 | 52681 | – | 2180 | 1492 | inactive
Jwa (GeneID 35128) | DRSC02048 | 94343 | 81302 | – | 4392 | 3443 | inactive
CG6168 (GeneID 39273) | DRSC10596 | 18778 | 44763 | 55701 | 4551 | 4069 | inactive
CG11902 (GeneID 43070) | DRSC14434 | 7.59e5 | 1.20e5 | – | 53848 | 3362 | inactive
CG13674 (GeneID 38921) | DRSC10033 | 53472 | 1.09e5 | – | 1728 | 7253 | inactive
twf (GeneID 41719) | DRSC15466 | 1.03e5 | 71624 | – | 3659 | 3121 | inactive
cal1 (GeneID 42065) | DRSC15725 | 1.38e5 | 1.14e5 | – | 5856 | 4407 | inactive
CG15373 (GeneID 32784) | DRSC19663 | 75264 | 2.26e5 | – | 1827 | 9460 | inactive
Setx (GeneID 38904) | DRSC10859 | 48464 | 37716 | – | 5590 | 1416 | inactive
jar (GeneID 42889) | DRSC16974 | 4.59e5 | 1.03e5 | – | 24626 | 3085 | inactive
CG5853 (GeneID 34322) | DRSC01103 | 5.22e5 | 1.96e5 | – | 27645 | 9305 | inactive
CG5853 (GeneID 34322) | DRSC02906 | 1.11e5 | 60519 | – | 4528 | 2992 | inactive
CG4998 (GeneID 39808) | DRSC10466 | 1.04e5 | – | – | 3349 | 2742 | inactive
Hsdl2 (GeneID 43325) | DRSC15839 | 87113 | 78498 | – | 2282 | 1991 | inactive
CR40282 (GeneID 12798062) | DRSC07814 | 76131 | 41030 | – | 2646 | 2948 | inactive
Caf1-55 (GeneID 41836) | DRSC16596 | 91345 | 78393 | – | 4020 | 3035 | inactive
msps (GeneID 41952) | DRSC17004 | 1.53e5 | 70388 | – | 5645 | 2774 | inactive
CG15822 (GeneID 38273) | DRSC08482 | 74170 | 43306 | – | 1849 | 3772 | inactive
CG15822 (GeneID 38273) | DRSC08483 | 64826 | 37344 | – | 1883 | 3140 | inactive
CG8172 (GeneID 35905) | DRSC07089 | 1.87e5 | 83196 | – | 4760 | 6566 | inactive
CG18563 (GeneID 35050) | DRSC02676 | 92744 | 67232 | – | 2457 | 5702 | inactive

4 entries from above, reduced to “Renilla reference signal, replicate 2”.
msps (GeneID 41952) [DRSC17004] = 2774
CG15822 (GeneID 38273) [DRSC08482] = 3772
CG15822 (GeneID 38273) [DRSC08483] = 3140
CG8172 (GeneID 35905) [DRSC07089] = 6566
